Laboratory results reported in US20180141989A1 (BOARD OF REGENTS OF THE UNIVERSITY OF OKLAHOMA, published 2018).
No constants are given. Whether binding was seen depends on the method and setting. Some binding calls cover weakened binding; strength is not graded here.

Chains of the proteins cited; added tags and fusions are not shown. Lines headed by an entry give the natural chain unless they say otherwise; changes in a name come on top.
UniProt O60894: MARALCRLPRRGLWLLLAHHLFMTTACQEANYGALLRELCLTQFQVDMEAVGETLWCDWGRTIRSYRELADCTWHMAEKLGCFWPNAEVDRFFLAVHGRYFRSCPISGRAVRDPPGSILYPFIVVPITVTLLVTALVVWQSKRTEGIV
UniProt P30988: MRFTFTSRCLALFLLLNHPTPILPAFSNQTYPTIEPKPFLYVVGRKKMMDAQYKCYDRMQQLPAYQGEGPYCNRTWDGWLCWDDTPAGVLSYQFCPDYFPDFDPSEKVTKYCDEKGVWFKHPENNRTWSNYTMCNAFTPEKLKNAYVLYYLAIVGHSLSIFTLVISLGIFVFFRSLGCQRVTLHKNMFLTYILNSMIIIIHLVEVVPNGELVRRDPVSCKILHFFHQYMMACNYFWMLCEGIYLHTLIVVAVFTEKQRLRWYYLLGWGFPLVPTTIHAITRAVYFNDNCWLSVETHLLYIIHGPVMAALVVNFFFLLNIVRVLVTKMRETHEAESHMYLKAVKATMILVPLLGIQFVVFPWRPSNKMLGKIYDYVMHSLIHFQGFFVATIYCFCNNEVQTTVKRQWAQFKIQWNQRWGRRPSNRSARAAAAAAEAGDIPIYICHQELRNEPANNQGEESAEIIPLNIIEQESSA

B1: CGRP(27-37)NH2 [N31D, S34P, K35W, A36S] (peptide)
peptide: FVPTDVGPWSF
modifications: C-terminal amide
B2: AM(37-52)NH2 [S45W, K46L, Q50W, Y52F] (peptide)
peptide: DKDNVAPRWLISPWGF
modifications: C-terminal amide

Biological target: MBP-RAMP1 ECD-(GS)5-CTR ECD-H6 fusion protein (human) (UniProt O60894+P30988)
Test: AlphaLISA competition (FIG. 6)

| Binder | binding |
| --- | --- |
| B1 | binds |
| B2 | binds |
